# Test results from patent US12590158 (XIYUAN ANJIAN MEDICINE SHANGHAI, dated 2026).
# Amino acid sequences for entries named in this document (tags omitted). Residues count along the entry.
# UniProt P04629, residues 33-417: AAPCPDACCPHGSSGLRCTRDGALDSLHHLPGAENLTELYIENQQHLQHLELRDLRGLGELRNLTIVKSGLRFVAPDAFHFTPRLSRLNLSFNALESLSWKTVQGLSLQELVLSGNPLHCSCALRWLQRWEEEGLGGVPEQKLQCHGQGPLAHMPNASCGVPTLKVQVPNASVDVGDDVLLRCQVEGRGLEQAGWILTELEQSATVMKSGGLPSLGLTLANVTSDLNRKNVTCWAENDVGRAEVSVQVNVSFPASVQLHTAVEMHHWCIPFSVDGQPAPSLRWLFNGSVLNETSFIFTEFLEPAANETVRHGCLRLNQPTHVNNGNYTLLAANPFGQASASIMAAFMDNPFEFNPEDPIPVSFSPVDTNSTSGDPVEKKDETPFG
# Numbering of substitutions follows the chain as printed. No constants are given. Whether binding was seen depends on the method and setting. Some results given as binding are weak or reduced against the parent protein; the word gives no strength.
# B1: anti-TrkA antibody 11G8 (antibody, V domains shown)
# VH: QVQLQQPGAELVKPGASVKLSCKASGYTFTSYWMHWVKQRPGQGLEWIGEINPNNGLTNYDEKFKTKATLTIDKSSRTAYIQLSSLTSEDSAVYYCAKYGNYVAFAFWGQGTLVTVSA
# VL: DIQMTQSPASLSATVGETVTITCRASENIYSYVAWYQQKQGKSPQLLVHNAKTLAEGVPSRFSGSGSGTQFSLKINGLHPEDFGSYYCQHHYGIPLTFGAGTKLELK
# notes: Murine monoclonal antibody purified from hybridoma medium by protein G
# B2: anti-TrkA antibody 33H5 (antibody, V domains shown)
# VH: B1 VH with K19Q, M34I, D61I, T66N, R77N, I81M, S85G, S88P, F107Y
# VL: B1 VL with T14S, E17D, S31T, V33L, A51T, N76S, G77S, H79Q, S85T, I94V
# notes: as for B1
# B3: anti-TrkA antibody 40D6 (antibody, V domains shown)
# VH: QVQLQQSGTELMKPGASVKISCKATGYTFSRYWIEWVKQRPGHGLEWIGEILPGRSSTNYNEKFKGKATFTADTSSNTAYMQLSSLTSEDSAVYYCTRVSQLHIYFDYWGQGTTVTVSS
# VL: DIVMTQVVPSVPVTPGESVSISCRSSKSLLHSNGNTYLYWFQQRPGQSPQLLIYRMSNLASGVPDRFSGSGSGTAFTLRISRVEAEDVAFYYCMQHLEFPLTFGAGTKLELK
# notes: as for B1
# B4: anti-TrkA antibody 42A11 (antibody, V domains shown)
# VH: QVQLQQPGAELVKPGASVKLSCKASGYTFTNYWMHWVKQRPGQGLEWIGEIYPSNGRTNYNEKFKTKATLTVDKSSSTAYMHLSSLTSEDSAVYYCAGSRYDAMDFWGQGTSVTVSS
# VL: QIVLTQSPAIMSASPGEKVTMTCSASSIISYMHWYQQKSGTSPKRWIYDTSKLASGVPARFSGSGSGTSYSLTISGMEAEDAATYYCHQWTSNPLTFGGGTKLELK
# notes: as for B1
# B5: anti-TrkA antibody 5A3 (antibody, V domains shown)
# VH: QVQLQQSGAELMKPGASVKISCKAIGYTFSRYWIEWVKQRPGHGLEWIGEILPGRGVTNYNENFKGKATFTVDISSTTTYIQFSSLTSEDSAVYYCARSNYGDYDFWGQGTSLTVSS
# VL: QTVVTQESALTTSPGETVTLTCRSSSGAVTTSNHANWVQEKPDHLFTSLMGGTNNRAPGVPARFSGSLIGDKAALTITGAQTEDEAIYFCALWYSNHWVFGGGTKLTVL
# notes: as for B1
# B6: anti-TrkA antibody 42H6 (antibody, V domains shown)
# VH: QVQLQQPGVELVKPGASVKLSCKTSGYTFTSYWMHWVKQRPGQGLEWIGEIYSSNGLTNYNEKFKNKATLTVDKSSSTAYMQLTSLTSEDSAIYYCARHWYVFLDHWGQGTTLTVSS
# VL: B5 VL with T2A, S26T, S48G, M50I, T53I, K105R
# notes: as for B1
# Molecular target: TrkA extracellular region (33-417) protein comprising human Fc (ACROBiosystems TRA-H5259) (human) (UniProt P04629)
# Assay: ELISA, plate coated with human TrkA extracellular region protein, HRP goat anti-mouse Fc detection
row,binding,Binder
1,binds,B1
2,binds,B2
3,binds,B3
4,binds,B4
5,binds,B5
6,binds,B6

# Molecular target: TrkA extracellular region (33-417) protein comprising human Fc (ACROBiosystems TRA-H5259) (human) (UniProt P04629)
# Assay: ELISA, coated human TrkA (33-417)-hFc
row,binding,Binder
1,binds,B1
2,binds,B2
3,binds,B3
4,binds,B4
5,binds,B5
6,binds,B6

# Molecular target: TrkA extracellular region (33-417) protein comprising human Fc (ACROBiosystems TRA-H5259) (human) (UniProt P04629)
# Assay: ELISA, coated human TrkA extracellular region protein
row,binding,Binder
1,binds,B1
2,binds,B2
3,binds,B3
4,binds,B4
5,binds,B5
6,binds,B6
